Where “and” joins values, the source holds several entries; their conditions need not be identical. Identical values can stand only once. Out of some 400,000 compounds screened, about 3,700 (0.93%) were called active. Inconclusive means that the source gave no clear call. Such entries were picked first, then a sample of the others. Calls follow the shape of the dose curve; as a rule, active = well fitted inhibition curve with a large enough effect; inconclusive = small, poorly fitted or top-dose-only effect, or another doubt; inactive = no such curve, though single readings can be large or run the other way. Potencies beside an inconclusive call are fits to weak or partial responses and may not hold up. More than one record can exist for a structure, and the calls need not agree.
biological target: Vitamin D3 receptor (Homo sapiens) (UniProt P11473); assay: Inhibitors of the vitamin D receptor (VDR): qHTS; conditions: VDR-SRC2-3 peptide fluorescence polarization, 2 h; max response, negative = inhibition: active compounds read low
Outline: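 Compounds are added to VDR with labelled SRC2-3 coactivator peptide and held 2 h at room temperature. Inhibition of the VDR–peptide interaction is then read as a change in fluorescence polarization.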
% is scaled to controls: 0 for no effect and ±100 for the full control effect; potency is read from the fitted curve at half-maximal effect.

Sequences of proteins named here, by UniProt entry; tags and fusion partners are left off. A change or cut given only in a name is not applied to a line headed by its entry.
UniProt P11473: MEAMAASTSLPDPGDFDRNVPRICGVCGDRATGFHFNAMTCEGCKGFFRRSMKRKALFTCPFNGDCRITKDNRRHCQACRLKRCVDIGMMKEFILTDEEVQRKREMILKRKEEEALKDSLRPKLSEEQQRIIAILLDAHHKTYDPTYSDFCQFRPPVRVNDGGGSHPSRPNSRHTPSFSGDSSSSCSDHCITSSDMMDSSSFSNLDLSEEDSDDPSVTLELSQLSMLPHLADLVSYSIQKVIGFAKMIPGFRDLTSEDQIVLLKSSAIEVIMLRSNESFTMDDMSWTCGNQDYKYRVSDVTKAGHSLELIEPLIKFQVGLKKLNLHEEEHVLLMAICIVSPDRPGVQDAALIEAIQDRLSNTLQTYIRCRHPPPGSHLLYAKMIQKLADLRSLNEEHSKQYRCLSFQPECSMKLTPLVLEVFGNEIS

Potency, inconclusive:
Nn1c(-c2ccc(O)cc2)nnc1-c1ccc(O)cc1 7.94 µM [inhibitor, partial curve, poor fit]
COc1ccc(-n2cccc2/C=C/[N+](=O)[O-])cc1 44.7 µM [inhibitor, partial curve, poor fit]
C#CC(=O)N(c1cc(OC)ccc1OC)C(C(=O)NC1CCCC1)c1cccs1 (centres undefined) 89.1 µM [inhibitor, single point]
O=C(O)CCc1ccc(-c2ccc(Br)cc2)n1-c1cccc(O)c1 63.1 µM [inhibitor, partial curve, poor fit]
O=C1C(=NO)CCc2ccccc21 89.1 µM [inhibitor, single point]
CCC(C)C(=O)Nc1nnc(CCc2ccccc2)s1 (centres undefined) 79.4 µM [inhibitor, single point]
CCOc1ccccc1N(C)C(=O)c1cc2c(=O)n(CC)c3ccccc3c2s1 17.8 µM [inhibitor, partial curve, poor fit]
CCN(CC(F)(F)C(F)F)S(=O)(=O)c1ccc(NC(=O)OC)cc1 7.08 µM [inhibitor, partial curve]
CN(Cc1ccco1)c1nc(-c2ccccc2Cl)nc2ccccc12 44.7 µM [inhibitor, partial curve]
CCCCNC(=O)c1sc(=S)n2c1[nH]c(=O)c1ccccc12 22.4 µM [inhibitor, full curve, poor fit]
O=C1CC[C@@H](O)CCN1CC[C@H](Sc1ccc(Br)cc1)c1ccccc1 79.4 µM [inhibitor, partial curve]
O=C(/C=C/c1ccccc1Cl)NC1CCS(=O)(=O)C1 (centres undefined) 28.2 µM [inhibitor, full curve]
CC(C)(c1ccccc1)c1ccc(OCc2ccc(C(=O)O)o2)cc1 89.1 µM [inhibitor, single point]
CCCCn1c(NC(=O)c2ccccc2)c(C#N)c2nc3ccccc3nc21 56.2 µM [inhibitor, partial curve, poor fit]
CCOC(=O)c1ccc(NC(=O)C2C3CCC(C3)C2C(=O)O)cc1 (centres undefined) 79.4 µM [inhibitor, single point]
O=S(=O)(/N=C(/NC(=S)Nc1ccccc1)c1ccccc1)c1ccc(Cl)cc1 7.08 µM [inhibitor, full curve, poor fit]
O=S(=O)(O)c1cc(O)c2cc(Nc3ccccc3)ccc2c1 56.2 µM [inhibitor, partial curve, poor fit]
Cc1cc(C(=O)c2cccs2)c(N)s1 79.4 µM [inhibitor, single point]
Oc1ccc2ccccc2c1CN1CCN(C/C=C/c2ccccc2)CC1 22.4 µM [inhibitor, full curve]
CCC(C)Cn1c(O)cc2nn(-c3nc4ccccc4s3)c(=O)c-2c1C (centres undefined) 4.47 µM [inhibitor, full curve, poor fit]
CN(C(=O)CSc1nc(-c2ccc(C(C)(C)C)cc2)c(C#N)c(=O)[nH]1)C1CCCCC1 100 µM [inhibitor, single point]
CCOC(=O)c1c(NC(=O)c2cc(CC(C)C)on2)sc(C(C)=O)c1C 89.1 µM [inhibitor, partial curve]
c1ccc(-c2cccc(N3CC4(CCNCC4)C3)c2)cc1 89.1 µM [inhibitor, single point]
Cc1cc(C)n(-c2nnc(NC34CC5CC(CC(C5)C3)C4)nn2)n1 50.1 µM [inhibitor, partial curve, poor fit]
Cn1c(=S)c2[nH]c(SCCN3CCCC3)nc2n(C)c1=O 79.4 µM [inhibitor, partial curve, poor fit]
COC(C)c1oc2c(C)c3oc(=O)cc(C)c3cc2c1C (centres undefined) 89.1 µM [inhibitor, single point]
O=C(Nc1ccc(Cl)cc1)/C(=C/c1cccc(O)c1)c1nc2ccccc2s1 1.78 µM [inhibitor, full curve, poor fit]
O=C1c2ccccc2C(=O)N1CCC(c1ccccc1)c1ccco1 (centres undefined) 20 µM [inhibitor, single point]
CC(C)(C)C(=O)NC(=S)Nc1sc2c(c1C#N)CCCCC2 70.8 µM [inhibitor, partial curve]
CCCCC[C@@H]1C=C(C(=O)O)[C@H](c2ccc(Cl)c(Cl)c2)N1S(=O)(=O)c1ccc(C)cc1 79.4 µM [inhibitor, partial curve, poor fit]
CN1c2ccccc2C(O)=C(C(=S)Nc2ccc(Cl)cc2)S1(=O)=O 56.2 µM [inhibitor, partial curve, poor fit]
Cc1cc(=S)cc(C)n1CCO 79.4 µM [inhibitor, partial curve, poor fit]
O=C(CCN1CCC2CCC(C2)C1)c1ccc(F)cc1 (centres undefined) 89.1 µM [inhibitor, single point]
N#Cc1c(NC(=S)NC(=O)c2ccccc2)sc2c1CCCCC2 79.4 µM [inhibitor, single point]
C[C@H]1C(c2ccccc2)=NN(c2ccccc2)[C@@H]1CO 141 µM [inhibitor, single point]
O=C(/C=C/c1ccccc1)c1ccc2ccccc2c1 11.2 µM [inhibitor, full curve, poor fit]
CCc1c(C)nc(SCC(=O)N2CCCCC2CC)[nH]c1=O (centres undefined) 25.1 µM [inhibitor, partial curve, poor fit]

Potency, active:
O=C(CCS(=O)(=O)c1nc(-c2cccs2)cc(C(F)(F)F)n1)Nc1ccc(F)c(Cl)c1 22.4 µM
Cc1ccccc1-c1cncnc1N(C)Cc1ccco1 39.8 µM
CO/N=C(\C(=O)N[C@@H]1C(=O)N2C(C(=O)O)=C(COC(C)=O)CS[C@H]12)c1csc(N)n1 50.1 µM and 70.8 µM
CCN(CC)c1ccc(/C=C2/SC(=O)N(C(C)C)C2=O)o1 31.6 µM
CCOC(=O)C1=C(C)N=c2s/c(=C\c3ccc(OCC(=O)O)cc3)c(=O)n2C1c1ccc(OC(C)C)cc1 (centres undefined) 50.1 µM
COC(=O)c1c(OC)cc2c(c1C)Oc1c(Cl)c(O)c(Cl)c(C)c1C(=O)O2 39.8 µM
C=CC1=C(C)C2=Cc3c(C=C)c(C)c4[n]3[Sn+2][n]3c(c(C)c(CCC(=O)O)c3=CC3=NC(=C4)C(C)=C3CCC(=O)O)=CC1=N2 35.5 µM
O=C(CC1SC(=O)N(c2ccccc2)C1=O)Nc1cccc2ccccc12 (centres undefined) 44.7 µM
COCOc1cc(OC)ccc1C(=O)/C=C/c1cccc(C(F)(F)F)c1 28.2 µM
Cc1cccn2c(=O)c(/C=C(\C#N)C(=O)NC3CCS(=O)(=O)C3)c(Oc3ccccc3Cl)nc12 (centres undefined) 17.8 µM
CO/N=C(/C(=O)N[C@@H]1C(=O)N2C(C(=O)O)=C(COC(N)=O)CS[C@H]12)c1ccco1 50.1 µM

Max response, negative = inhibition, inactive:
Cc1c(Cl)cccc1-n1ncc(C(=O)N2CCC(C)CC2)c1C1CCN(C(=O)OC(C)(C)C)CC1 4.52%
O=C(OCc1cccc([N+](=O)[O-])c1)c1cnccn1 -10.3%
O=C(Nc1cc(=O)[nH]c(=O)[nH]1)c1cc(Cl)ccc1Cl 7.66%
Cc1ccc2[nH]c(C)c(CCNC(=O)c3c(N)no[n+]3[O-])c2c1 -16%
Cc1nc2ccccn2c1C(=O)CSc1ccc(Cl)cc1Cl -6.86%
Cc1cc(Cl)ccc1OCC(=O)N1CCC(c2nc3ccccc3o2)CC1 0.642%
Cn1c(=O)c2sccc2n2c(CCCC(=O)Nc3ccc(Oc4ccc(Cl)cc4)cc3)nnc12 4.5%
CCn1cc(C(=O)N2CC(C)CC(C)C2)c(=O)c2cc(S(=O)(=O)N(C)C)ccc21 (centres undefined) -16.4%
COc1ccc(CCNc2ccc(S(=O)(=O)N3CCCC3)cc2[N+](=O)[O-])cc1 -0.448%
Cc1cccc(C(=O)Nc2ccc(OCc3cc(=O)n4ccsc4n3)cc2)c1 7.32%
COc1ccc(Cl)cc1NC(=O)C1CC(c2ccccc2O)=NO1 (centres undefined) 6.07%
Cc1cccc(-c2nc(S(=O)(=O)c3ccccc3)c(N3CCOCC3)o2)c1 6.98%
Clc1ccc(CN2CCN(c3ncccn3)CC2)c(Cl)c1 6.86%
COc1ccc(C2=CC(=O)C[C@H](c3ccc(OC)cc3)C2)cc1 -11.1%
CC[C@@H](C)[C@@H](C(=O)Nc1ccc(C)cc1)N1Cc2ccccc2C1=O -10.9%
O=C(Nc1cccc(NC(=O)c2nccc3ccccc23)c1)c1ccco1 7.17%
Cc1ccccc1-c1cn(-c2ccccc2)c(=S)[nH]1 -7.66%
COc1cc2[nH]c3c(=O)n(CCN4CCOCC4)cnc3c2cc1OC -22.7%
CCOc1ccc(CNC(=O)CCc2cn(Cc3ccccc3)c3ccccc23)cc1 -9.7%
CC1=NNC(=O)C1CC(=O)N/N=C/C(Br)=C/c1ccccc1 (centres undefined) -22%
CCOC(=O)CSc1nnc(CCc2nc3ccccc3[nH]2)n1C -15.5%

From PubChem BioAssay AID504847 (National Center for Advancing Translational Sciences (NCATS), 2011)
